From US20140356287A1, “PLOD2 as a Target of Intervention for Sarcoma Metastasis” (The Trustees of the University of Pennsylvania, priority 2013, published 2014)
Entries after “also recorded” stand apart in the source; their conditions may differ. At least one compound was matched to its structure with a doubt left.

Key:
HT-1080 cells = experiment: Scratch migration assay of HT-1080 cells; format: cell-based, human; conditions: 0.5 mM Minoxidil for 48 hours
PLOD2 [1] = experiment: Western blot of PLOD2 protein in HT-1080 cells; format: cell-based, human; conditions: 0.5 mM Minoxidil
PLOD2 [2] = experiment: Western blot of PLOD2 protein in KIA cells; format: cell-based, murine; conditions: 0.5 mM Minoxidil
HIF1α = experiment: Western blot of HIF1α in HT-1080 and KIA cells; format: cell-based; conditions: 0.5 mM Minoxidil
KIA cells = experiment: Subcutaneous KIA cell allograft in nude mice (primary tumor, lung metastasis, collagen); format: in vivo
Text: Generation of Hif1α^fl/fl mice (Ryan et al., 2000, Cancer Res 60(15):4010-5) and LSL-Kras^G12D/+Trp53^fl/fl mice has been previously described (Kirsch et al., 2007, Nat Med 13(8):992-7). These mice were crossed to create the LSL-Kras^G12D/+Trp53^fl/flHif1a^fl/fl animals. Soft tissue sarcomas were generated by intramuscular injection of a calcium phosphate precipitate of Ad-Cre (Gene Transfer Vector Core, University of Iowa). For transplant tumors 1×106 KIA (derived from LSL-Kras^G12D/+[…] tumors) were injected subcutaneously into the flanks of nu/nu mice (Charles River Laboratories). In each experiment 10 mice per experimental group were used with each mouse bearing two subcutaneous tumors. Tumors developed after 3-5 days, were monitored every other day, and animals were euthanized after 20-30 days. For in vivo lung metastasis analysis lung tissues were removed, and sections were stained with hematoxylin and eosin. Images were acquired using a Nikon SMZ800 stereoscope with a Nikon 1200F digital camera and Nikon Act-1 software. The ratio of total metastatic sarcoma foci to total lung area (% tumor burden) was determined using ImagePro 6.3 software (Media Cybernetics Inc.). Additionally, the percent of animals in the entire cohort with metastatic foci was evaluated along with total number of metastatic foci per experiment and the averae number of sarcoma lung foci per lung in each experiment. For Minoxidil injections, allografts and drug treatments were started simultaneously. Mice bearing subcutaneous KIA tumors on each flank were intraperitoneal injected with PBS, 1 mg/kg Minoxidil, or 3 mg/kg Minoxidil every other day unless the animals were euthanized, the tumors and lungs removed.
Immunohistochemistry of tissue sections with antibodies to HIF1α (Abcam) and Lectin (Vector Labs) was performed using enzymatic Avidin-Biotin Complex (ABC)-diaminobenzidine (DAB) staining (Vector Labs). Nuclei were counterstained with hematoxylin. Immunofluorescences staining of copGFP (Evrogen) and Vimentin (Abcam) as well as DAPI (Invitrogen) stained images were visualized using an Olympus IX81 microscope. Collagen was stained using Masson's Trichrome Kit (Sigma Aldrich) and nuclei were counterstained with Weigert's iron hematoxylin (Sigma Aldrich). Collagen second harmonic generation (SHG) images were captured using a Prairie Technologies Ultima 2-Photon Microscope system (Middleton, Wis.). Images were taken with an excitation wavelength of 910 nm, and captured through an emission filter of 457-487 nm (that detects the SHG signal for collagen). Collagen was quantified using Image-Pro software. All comparative images were obtained using identical microscope and camera settings. Picrosirius Red staining (Electron Microscopy Sciences) and analysis was conducted using paraffin sections of primary murine sarcomas stained with 0.1% Picrosirius and counterstained with Weigert's Hematoxylin to visualize fibrillar collagen. Sections were imaged using a Leica DMRB microscope bearing an analyzer and polarizer (leica) and an Olympus DP72 camera.

With `Nc1cc(N2CCCCC2)nc(N)[n+]1[O-]` [Minoxidil] the “HT-1080 cell migration (scratch assay recovery)” value (HT-1080 cells) was “significantly reduced HT-1080 cell migration”, the PLOD2 protein levels (PLOD2 [1]) was “reduced PLOD2 protein levels” and the PLOD2 protein levels (PLOD2 [2]) was “reduced PLOD2 protein levels”. For the same molecule, the HIFα levels (HIF1α) was “increased HIFα levels”, the “number of pulmonary metastases” value (KIA cells; 1 mg/kg or 3 mg/kg intraperitoneal every other day for 3 weeks, nude mice) was “reduced the number of pulmonary metastases; also recorded: decreased pulmonary metastasis” and the “collagen organization in primary tumors (Picrosirius red staining)” value (KIA cells; KIA subcutaneous tumors, Minoxidil vs control treated) was “relatively organized collagen compared with control treated tumors; also recorded: altered collagen organization in the primary tumors”. For the same molecule, the “deposited collagen and vasculature penetration (Masson's Trichrome staining)” value (KIA cells; KIA tumors, Minoxidil vs control treated) was “Deposited collagen appears thinner and did not penetrate the vasculature”, the “average number of sarcoma foci/lung” value (KIA cells; intra-peritoneal Minoxidil treatment) was “reduced the average number of sarcoma foci/lung” and the “metastases in lungs (H&E staining)” value (KIA cells; lungs of mice bearing KIA subcutaneous tumors, Minoxidil vs PBS) was “very few in lungs from animals treated with Minoxidil”.
